Library screening results

Amino acid sequences for entries named in this document (tags omitted).
UniProt E9BF75, entry or part of it: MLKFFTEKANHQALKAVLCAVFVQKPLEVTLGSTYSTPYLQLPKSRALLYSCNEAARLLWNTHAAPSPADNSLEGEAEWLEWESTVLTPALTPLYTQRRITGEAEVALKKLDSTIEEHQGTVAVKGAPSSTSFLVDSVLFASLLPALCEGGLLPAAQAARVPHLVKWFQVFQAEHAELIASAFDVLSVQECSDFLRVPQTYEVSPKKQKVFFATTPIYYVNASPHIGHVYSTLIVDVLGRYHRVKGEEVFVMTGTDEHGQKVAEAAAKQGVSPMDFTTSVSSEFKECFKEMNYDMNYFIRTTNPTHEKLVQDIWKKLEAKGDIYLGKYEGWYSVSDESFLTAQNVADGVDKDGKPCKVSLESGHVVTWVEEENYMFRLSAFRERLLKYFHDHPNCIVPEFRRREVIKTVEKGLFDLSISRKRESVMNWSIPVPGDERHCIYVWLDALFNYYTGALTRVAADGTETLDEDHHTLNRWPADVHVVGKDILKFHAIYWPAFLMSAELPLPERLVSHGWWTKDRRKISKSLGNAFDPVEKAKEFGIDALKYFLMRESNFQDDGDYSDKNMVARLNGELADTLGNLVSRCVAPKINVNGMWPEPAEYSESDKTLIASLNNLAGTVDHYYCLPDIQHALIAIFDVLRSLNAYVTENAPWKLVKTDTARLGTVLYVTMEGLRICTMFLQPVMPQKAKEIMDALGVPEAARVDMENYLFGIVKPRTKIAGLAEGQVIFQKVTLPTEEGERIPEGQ

Source: ChEMBL document CHEMBL3988442, “University of Dundee, Small-Polar-MMV Screening Library” (2021).

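Methionyl-tRNA synthetase (putative), Leishmania donovani (UniProt E9BF75). Primary screen of methionyl-tRNA synthetase; the read-out is not stated. The test concentration is not given. The values are filed as inhibition. About 68,000 compounds were tested under these conditions; 0.035% (about 24) showed 50% or more at least once.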

All values are in %. The controls that fix the scale are not given in the record; negative values are as filed. The compounds are a random part of those screened.

SMILES	Inhibition
Cc1cc(C(=O)N(C)C(C)CC(C)C)on1 (configuration not stated)	8.437
Cc1noc(C)c1CN1CCC2(COCc3cnc(N(C)C)nc32)C1 (configuration not stated)	12.03
CCc1nn(C)c(Cl)c1CN1CCCC2(CC1)CN(C)C(=O)O2 (configuration not stated)	1.858
CC(C)n1cc(C(=O)NCCN(C)C)c2n[nH]c(=O)c-2c1	7.317
CCN(CC1CC1)C(=O)NCc1nnc2n1CCC2	19.2
O=C(NC1CCN(c2snc3ccccc23)CC1)C1CCC1	15.97
O=C(CCc1cc2n(n1)CCNC2)NCCS(=O)(=O)N1CCCC1	5.363
Cc1nc(C2CCN(C(C)C)CC2)sc1Br	9.449
O=C(CCn1cncn1)N1C[C@H]2CC[C@@H]1CN(Cc1cccnc1)C2	3.559
CC(C)(O)CN1CCN(C(=O)c2sccc2C2CC2)CC1	13.19
Cc1cc(NC(=O)Cn2cnc(-c3cccs3)cc2=O)sn1	12.23
Cc1ccsc1CNC(=O)NC(C)c1ccc2c(c1)CCC(=O)N2 (configuration not stated)	22.16
CC(=O)N1CCC2(CCN(S(=O)(=O)c3ccccc3)CC2)C1	8.403
CCN(CC)C(=O)c1nnsc1-c1ccccc1	7.551
CNCC(=O)NC1CC(C)(C)Cc2nc(C(C)(C)C)ncc21 (configuration not stated)	14.24
O=C(NCc1ccco1)[C@@H]1CCO[C@@H]2CCN(c3ncccn3)C[C@@H]21	0
COCC(C)(C#N)NC(=O)COc1ccccc1Br (configuration not stated)	11.5
O=C(NC1CCCC1)c1cc2c(s1)CCN2C(=O)c1ccccc1	10.68
CC(C)(C)c1cc(CN2CCOCC(O)C2)n[nH]1 (configuration not stated)	1.504
C=C(C)COc1ccccc1C(=O)NCCc1cc(O)nc(C)n1	5.994
CNc1cncc(C2CCN(S(C)(=O)=O)CC2)n1	17.02
Cc1ccc(CC2COCCN(S(C)(=O)=O)C2)nc1 (configuration not stated)	7.937
Cc1noc(C)c1CN1C[C@@H]2CC(F)(F)C[C@@H]2C1	16.94
CCOCC(=O)NCC(C)(O)c1cc(C)oc1C (configuration not stated)	12.32
CCn1ncc2c1CN(C(=O)c1ccc3c(c1)OCO3)CC2COC (configuration not stated)	11.5
CCc1nc(CN(C)C2CCN(Cc3cnc(C)cn3)C2)no1 (configuration not stated)	5.164
Cc1[nH]c(=O)[nH]c(=O)c1CN1CCCC(CCc2ccccc2F)C1 (configuration not stated)	8.541
CC(C(=O)N(C)Cc1ccc(Br)o1)n1cncn1 (configuration not stated)	-1.989
COC(=O)CN(C(=O)c1ccc(Cl)o1)c1cccc(F)c1	3.093
CN(CC(F)(F)F)C(=O)Cn1cc(NC(=O)C(C)(C)C)cn1	1.344
CCOC(C)c1nccn1Cc1c(C)noc1C (configuration not stated)	10.76
Cc1noc2ncc(C(=O)N3CCCC3c3ccncc3)cc12 (configuration not stated)	5.164
Cc1occc1C(=O)NCC(=O)N1CCC(COc2ccccc2)CC1	6.283
c1csc(CN2CCc3ncnc(C4CCOC4)c3CC2)n1 (configuration not stated)	11.4
CCC(=O)NC(Cc1cc(N(C)C)nc(C2CC2)n1)c1ccccc1 (configuration not stated)	17.92
c1ccc(CN2CC[C@@H]3O[C@@H](COCCN4CCCC4)CC[C@@H]32)nc1	13.43
CN(C)c1ncc(-c2ccc(F)cc2)c(C2CNCCO2)n1 (configuration not stated)	17.92
CCO[C@@H]1CC[C@H]2[C@H]1OCCN2S(=O)(=O)C1CC1	17.26
COC(=O)C1CCN(C(=O)Cn2ccc(-c3ccccc3)n2)CC1	13.28
CN1CCCC1c1nccnc1-c1ccc(C(=O)O)cc1 (configuration not stated)	1.266
CCn1ccnc1CN(C)C1CCCN(Cc2ccccc2F)C1 (configuration not stated)	7.358
Cc1ccnc2c1NC(=O)CN2C(=O)CCc1cccs1	17.33
Cc1cc(N2CCN(C(=O)c3cn(C)c4ccccc34)CC2)nc(C)n1	12.94
CC(=O)N1CCC2(C=C(C(=O)NC3CC3)c3ccccc32)CC1	12.32
CCCn1cc(C(=O)n2nc(C)cc2C)c(S(=O)(=O)N2CCSCC2)n1	18.8
COCCNC(=O)c1ccc2ccc(N(C)CC3CC3)n2c1	22.12
CN1CCCc2cc(-c3cncn3CC(=O)NC(C)(C)C)ccc21	19.35
COc1ccc(NC2(C(=O)N3CCCn4cncc4C3)CCCC2)cc1	15.23
CN(C)C(=O)c1cccc(NC(=O)CN2CCCCC2C2OCCO2)c1 (configuration not stated)	8.791

Once more, the final 5:

{"smiles": "CCCn1cc(C(=O)n2nc(C)cc2C)c(S(=O)(=O)N2CCSCC2)n1", "Inhibition": 18.8}
{"smiles": "COCCNC(=O)c1ccc2ccc(N(C)CC3CC3)n2c1", "Inhibition": 22.12}
{"smiles": "CN1CCCc2cc(-c3cncn3CC(=O)NC(C)(C)C)ccc21", "Inhibition": 19.35}
{"smiles": "COc1ccc(NC2(C(=O)N3CCCn4cncc4C3)CCCC2)cc1", "Inhibition": 15.23}
{"smiles": "CN(C)C(=O)c1cccc(NC(=O)CN2CCCCC2C2OCCO2)c1", "stereo": "configuration not stated", "Inhibition": 8.791}